The source of these data is article PMC6669929.

These are yes or no findings as the source states them, for the method shown. Some entries that bind do so weakly or less than the wild type.

The target of experiment [1] is T1, IRE1α, endogenous in MEFs and in mouse spinal cord (mouse (endogenous in MEFs and spinal cord)), Q9EQY0. Briefly: sucrose density-gradient centrifugation; untransfected control and MITOL-KO MEFs treated with tunicamycin 4 h, NP-40 lysate, 20–40% sucrose gradient, 250,000 g 12 h 4°C, fractions immunoblotted with anti-IRE1α (Fig 3B). The note with it: remark: other sources report otherwise.

The target of experiment [2] is T1, IRE1α, endogenous in MEFs and in mouse …. Description: sucrose density-gradient centrifugation; spinal cord of WT or MITOL^nestin mice treated with 1 mg/kg tunicamycin for 24 h, solubilized with NP-40 lysis buffer, sucrose gradient, immunoblot (Fig 7B). The note with it: remark: other sources report otherwise. For orientation: A western blot detects proteins with antibodies after separation by electrophoresis.

B1: IRE1α, endogenous in MEFs and in mouse spinal cord, Q9EQY0 21-977 (protein)
chain: SFGRTSTVTLPETLLFVSTLDGSLHAVSKRTGSIKWTLKEDPVLQVPTHVEEPAFLPDPNDGSLYTLGGKNNEGLTKLPFTIPELVQASPCRSSDGILYMGKKQDIWYVIDLLTGEKQQTLSSAFADSLCPSTSLLYLGRTEYTITMYDTKTRELRWNATYFDYAASLPEDDVDYKMSHFVSNGDGLVVTVDSESGDVLWIQNYASPVVAFYVWQGEVLRKVVHINVAVETLRYLTFMSGEVGRITKWKYPFPKETEAKSKLTPTLYVGKYSTSLYASPSMVHEGVAVVPRGSTLPLLEGPQTDGVTIGDKGECVITPSTDLKFDPGLKGKSKLNYLRNYWLLIGHHETPLSASTKMLERFPNNLPKHRENVIPADSEKRSFEEVINIVGQTSDNTPTTVSQDVEEKLARAPAKPEAPVDSMLKDMATIILSTFLLVGWVAFIITYPLSVHQQRQLQHQQFQKELEKIQLLQQQQLPFHPHGDLTQDPEFLDSSGPFSESSGTSSPSPSPRASNHSLHPSSSASRAGTSPSLEQDDEDEETRMVIVGKISFCPKDVLGHGAEGTIVYKGMFDNRDVAVKRILPECFSFADREVQLLRESDEHPNVIRYFCTEKDRQFQYIAIELCAATLQEYVEQKDFAHLGLEPITLLHQTTSGLAHLHSLNIVHRDLKPHNILLSMPNAHGRIKAMISDFGLCKKLAVGRHSFSRRSGVPGTEGWIAPEMLSEDCKDNPTYTVDIFSAGCVFYYVISEGNHPFGKSLQRQANILLGACNLDCFHSDKHEDVIARELIEKMIAMDPQQRPSAKHVLKHPFFWSLEKQLQFFQDVSDRIEKEALDGPIVRQLERGGRAVVKMDWRENITVPLQTDLRKFRTYKGGSVRDLLRAMRNKKHHYRELPVEVQETLGSIPDDFVRYFTSRFPHLLSHTYQAMELCRHERLFQTYYWHEPTEPQPPVIPYAL
Take B1: the binding entry in experiment [1] and in experiment [2] was “binds” in each case.
